Assay results from the supplement of paper PMC11732987, “Enantioselective OTUD7B fragment discovery through chemoproteomics screening and high-throughput optimisation” (Communications Chemistry, 2025).
The other results are listed elsewhere or left out. The data scatter; read single values as rough.

The chains behind the UniProt entries cited, without tags or fusion partners. Where a name states a change or a piece, a line headed by the entry shows the natural chain unless it says otherwise. Residues count along the entry.
UniProt Q14966, 669-695: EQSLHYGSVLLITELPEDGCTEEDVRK
UniProt Q9Y4E5: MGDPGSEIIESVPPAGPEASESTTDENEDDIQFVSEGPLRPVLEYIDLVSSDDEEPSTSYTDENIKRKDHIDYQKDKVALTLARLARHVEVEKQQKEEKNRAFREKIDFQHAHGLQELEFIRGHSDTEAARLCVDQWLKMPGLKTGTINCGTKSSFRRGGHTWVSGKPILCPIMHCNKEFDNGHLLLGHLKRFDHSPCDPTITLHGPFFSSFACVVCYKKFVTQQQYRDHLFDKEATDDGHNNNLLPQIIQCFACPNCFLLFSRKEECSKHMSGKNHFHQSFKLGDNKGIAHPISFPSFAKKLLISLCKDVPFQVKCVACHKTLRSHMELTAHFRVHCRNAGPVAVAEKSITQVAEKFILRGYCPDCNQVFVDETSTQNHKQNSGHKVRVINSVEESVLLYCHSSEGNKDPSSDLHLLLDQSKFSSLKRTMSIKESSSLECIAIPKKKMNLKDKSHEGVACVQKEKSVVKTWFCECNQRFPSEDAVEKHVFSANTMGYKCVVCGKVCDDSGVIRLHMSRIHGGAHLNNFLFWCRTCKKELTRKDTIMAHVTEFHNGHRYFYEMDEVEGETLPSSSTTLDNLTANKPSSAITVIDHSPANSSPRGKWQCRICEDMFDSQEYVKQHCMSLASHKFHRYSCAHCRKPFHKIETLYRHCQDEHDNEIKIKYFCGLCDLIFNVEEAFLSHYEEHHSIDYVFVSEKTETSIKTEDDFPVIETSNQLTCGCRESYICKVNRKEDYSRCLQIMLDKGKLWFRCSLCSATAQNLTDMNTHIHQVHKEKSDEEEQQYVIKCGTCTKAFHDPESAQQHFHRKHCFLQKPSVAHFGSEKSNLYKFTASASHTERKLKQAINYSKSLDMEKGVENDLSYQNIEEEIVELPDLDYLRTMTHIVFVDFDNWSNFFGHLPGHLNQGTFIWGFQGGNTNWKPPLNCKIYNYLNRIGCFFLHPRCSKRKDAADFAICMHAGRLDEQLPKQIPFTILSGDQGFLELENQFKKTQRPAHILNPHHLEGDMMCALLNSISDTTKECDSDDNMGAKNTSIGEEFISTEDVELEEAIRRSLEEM
UniProt Q9H2Y7: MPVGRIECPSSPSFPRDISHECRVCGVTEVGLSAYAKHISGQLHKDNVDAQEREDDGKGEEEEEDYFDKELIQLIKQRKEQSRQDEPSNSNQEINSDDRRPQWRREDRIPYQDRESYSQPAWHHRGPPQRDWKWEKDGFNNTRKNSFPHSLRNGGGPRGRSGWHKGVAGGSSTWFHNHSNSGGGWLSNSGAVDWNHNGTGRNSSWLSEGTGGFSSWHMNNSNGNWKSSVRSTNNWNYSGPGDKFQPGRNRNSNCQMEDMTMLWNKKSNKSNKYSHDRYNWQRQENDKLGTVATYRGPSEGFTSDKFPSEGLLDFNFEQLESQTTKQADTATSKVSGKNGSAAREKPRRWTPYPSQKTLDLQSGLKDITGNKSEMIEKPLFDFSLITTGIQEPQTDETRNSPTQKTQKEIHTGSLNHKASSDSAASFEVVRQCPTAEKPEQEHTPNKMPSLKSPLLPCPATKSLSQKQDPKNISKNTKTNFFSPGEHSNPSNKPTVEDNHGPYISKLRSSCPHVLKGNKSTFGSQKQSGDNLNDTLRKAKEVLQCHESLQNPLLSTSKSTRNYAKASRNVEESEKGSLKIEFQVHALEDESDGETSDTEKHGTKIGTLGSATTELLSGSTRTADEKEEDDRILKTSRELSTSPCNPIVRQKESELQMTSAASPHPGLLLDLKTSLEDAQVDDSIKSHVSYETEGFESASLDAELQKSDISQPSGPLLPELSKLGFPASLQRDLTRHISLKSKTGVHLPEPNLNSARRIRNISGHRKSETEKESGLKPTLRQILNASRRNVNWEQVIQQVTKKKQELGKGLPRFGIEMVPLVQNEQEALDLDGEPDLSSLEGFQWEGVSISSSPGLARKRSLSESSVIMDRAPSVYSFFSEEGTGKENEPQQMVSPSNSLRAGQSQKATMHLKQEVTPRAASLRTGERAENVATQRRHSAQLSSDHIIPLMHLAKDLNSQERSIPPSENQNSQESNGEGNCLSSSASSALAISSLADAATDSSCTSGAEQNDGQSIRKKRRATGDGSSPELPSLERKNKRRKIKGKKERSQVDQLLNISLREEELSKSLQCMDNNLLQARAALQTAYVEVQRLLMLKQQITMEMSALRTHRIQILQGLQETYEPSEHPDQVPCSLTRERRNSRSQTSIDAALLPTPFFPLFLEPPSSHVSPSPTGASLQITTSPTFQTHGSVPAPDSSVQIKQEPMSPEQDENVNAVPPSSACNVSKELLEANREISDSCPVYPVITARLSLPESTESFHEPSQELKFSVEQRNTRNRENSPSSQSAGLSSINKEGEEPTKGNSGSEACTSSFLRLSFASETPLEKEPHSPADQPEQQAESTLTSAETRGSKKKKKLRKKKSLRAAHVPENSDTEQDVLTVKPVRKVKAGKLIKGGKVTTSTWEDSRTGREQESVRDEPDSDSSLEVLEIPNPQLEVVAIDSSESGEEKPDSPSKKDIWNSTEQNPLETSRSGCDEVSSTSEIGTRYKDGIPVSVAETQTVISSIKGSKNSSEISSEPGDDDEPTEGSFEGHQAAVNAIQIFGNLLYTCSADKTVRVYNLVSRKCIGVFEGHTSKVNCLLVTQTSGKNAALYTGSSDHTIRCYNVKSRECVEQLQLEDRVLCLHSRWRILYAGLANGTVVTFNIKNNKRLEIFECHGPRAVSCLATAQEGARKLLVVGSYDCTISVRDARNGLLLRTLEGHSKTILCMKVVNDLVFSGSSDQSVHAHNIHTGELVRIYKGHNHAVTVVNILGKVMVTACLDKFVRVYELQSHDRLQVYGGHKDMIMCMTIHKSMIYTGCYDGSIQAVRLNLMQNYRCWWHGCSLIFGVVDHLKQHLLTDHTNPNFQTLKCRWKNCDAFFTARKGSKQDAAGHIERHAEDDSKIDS
UniProt Q8IYN0: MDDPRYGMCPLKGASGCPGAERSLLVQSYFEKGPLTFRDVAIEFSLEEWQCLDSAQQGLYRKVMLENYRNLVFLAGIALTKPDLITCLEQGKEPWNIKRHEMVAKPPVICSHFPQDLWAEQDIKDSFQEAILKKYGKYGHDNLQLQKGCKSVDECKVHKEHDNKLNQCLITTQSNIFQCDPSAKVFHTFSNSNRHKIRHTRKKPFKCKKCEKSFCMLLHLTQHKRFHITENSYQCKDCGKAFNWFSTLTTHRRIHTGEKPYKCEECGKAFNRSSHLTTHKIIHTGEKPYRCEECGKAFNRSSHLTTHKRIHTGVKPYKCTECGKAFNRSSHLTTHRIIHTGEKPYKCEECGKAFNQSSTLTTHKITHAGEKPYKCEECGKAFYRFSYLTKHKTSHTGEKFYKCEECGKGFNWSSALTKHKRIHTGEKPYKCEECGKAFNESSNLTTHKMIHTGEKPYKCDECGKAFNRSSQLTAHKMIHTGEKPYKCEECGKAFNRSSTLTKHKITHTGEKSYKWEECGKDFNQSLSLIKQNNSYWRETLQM
UniProt Q5VUA4: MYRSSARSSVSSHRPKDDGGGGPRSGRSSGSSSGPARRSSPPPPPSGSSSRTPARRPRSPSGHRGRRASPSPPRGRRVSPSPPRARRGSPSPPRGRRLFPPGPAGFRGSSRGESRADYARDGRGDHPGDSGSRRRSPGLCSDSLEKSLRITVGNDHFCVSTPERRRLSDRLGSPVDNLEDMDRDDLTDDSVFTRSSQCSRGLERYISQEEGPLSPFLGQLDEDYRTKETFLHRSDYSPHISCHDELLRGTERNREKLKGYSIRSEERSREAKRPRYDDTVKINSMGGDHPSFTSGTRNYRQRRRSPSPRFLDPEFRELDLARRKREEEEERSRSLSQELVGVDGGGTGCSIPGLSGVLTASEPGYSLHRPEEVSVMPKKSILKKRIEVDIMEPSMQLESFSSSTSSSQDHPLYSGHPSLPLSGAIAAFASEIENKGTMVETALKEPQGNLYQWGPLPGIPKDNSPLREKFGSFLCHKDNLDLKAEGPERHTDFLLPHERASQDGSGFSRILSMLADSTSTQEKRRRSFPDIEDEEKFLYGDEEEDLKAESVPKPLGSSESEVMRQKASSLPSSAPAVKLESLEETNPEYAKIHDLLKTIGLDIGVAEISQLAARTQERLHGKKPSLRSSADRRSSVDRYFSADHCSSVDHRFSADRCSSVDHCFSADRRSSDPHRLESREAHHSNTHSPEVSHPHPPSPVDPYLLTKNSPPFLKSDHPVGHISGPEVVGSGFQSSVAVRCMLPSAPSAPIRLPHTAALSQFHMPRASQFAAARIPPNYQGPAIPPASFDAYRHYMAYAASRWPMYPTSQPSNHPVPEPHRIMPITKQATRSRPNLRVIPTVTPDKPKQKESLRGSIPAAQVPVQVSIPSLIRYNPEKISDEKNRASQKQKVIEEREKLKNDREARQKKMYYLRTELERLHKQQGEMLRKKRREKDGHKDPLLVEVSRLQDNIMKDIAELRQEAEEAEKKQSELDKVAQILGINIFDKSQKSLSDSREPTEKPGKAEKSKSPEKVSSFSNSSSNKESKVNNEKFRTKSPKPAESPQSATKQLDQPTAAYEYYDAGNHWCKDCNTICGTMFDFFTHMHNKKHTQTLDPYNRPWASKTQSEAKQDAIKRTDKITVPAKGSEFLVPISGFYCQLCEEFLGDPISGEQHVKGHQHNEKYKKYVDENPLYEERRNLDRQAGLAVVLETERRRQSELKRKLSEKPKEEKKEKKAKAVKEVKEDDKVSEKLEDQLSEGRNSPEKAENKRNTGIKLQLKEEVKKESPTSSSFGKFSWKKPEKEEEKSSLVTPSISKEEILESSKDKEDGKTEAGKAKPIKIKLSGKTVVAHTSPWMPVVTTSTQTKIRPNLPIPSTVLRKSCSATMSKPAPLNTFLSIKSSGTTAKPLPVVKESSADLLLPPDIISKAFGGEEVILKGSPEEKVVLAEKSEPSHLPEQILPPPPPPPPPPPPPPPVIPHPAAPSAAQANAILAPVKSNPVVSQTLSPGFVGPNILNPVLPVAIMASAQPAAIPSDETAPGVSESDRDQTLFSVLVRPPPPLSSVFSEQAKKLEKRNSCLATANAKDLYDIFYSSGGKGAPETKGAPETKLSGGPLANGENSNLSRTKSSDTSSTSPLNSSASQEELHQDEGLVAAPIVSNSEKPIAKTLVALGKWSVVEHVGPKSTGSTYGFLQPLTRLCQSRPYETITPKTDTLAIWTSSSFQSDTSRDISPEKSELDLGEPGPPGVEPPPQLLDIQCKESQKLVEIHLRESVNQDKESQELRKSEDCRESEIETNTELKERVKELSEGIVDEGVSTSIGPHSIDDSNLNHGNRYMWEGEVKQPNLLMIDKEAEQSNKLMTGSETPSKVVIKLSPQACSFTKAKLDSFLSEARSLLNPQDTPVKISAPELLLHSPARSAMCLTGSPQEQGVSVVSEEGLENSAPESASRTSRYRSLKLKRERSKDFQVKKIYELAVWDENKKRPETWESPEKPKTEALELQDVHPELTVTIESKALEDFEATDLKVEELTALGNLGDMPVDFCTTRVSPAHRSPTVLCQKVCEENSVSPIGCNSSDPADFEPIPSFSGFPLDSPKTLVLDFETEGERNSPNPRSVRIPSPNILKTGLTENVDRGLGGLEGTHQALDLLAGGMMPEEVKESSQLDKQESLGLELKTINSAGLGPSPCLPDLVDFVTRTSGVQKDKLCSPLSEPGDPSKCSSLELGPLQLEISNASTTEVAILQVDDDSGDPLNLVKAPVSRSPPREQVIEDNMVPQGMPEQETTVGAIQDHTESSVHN
UniProt Q9H707: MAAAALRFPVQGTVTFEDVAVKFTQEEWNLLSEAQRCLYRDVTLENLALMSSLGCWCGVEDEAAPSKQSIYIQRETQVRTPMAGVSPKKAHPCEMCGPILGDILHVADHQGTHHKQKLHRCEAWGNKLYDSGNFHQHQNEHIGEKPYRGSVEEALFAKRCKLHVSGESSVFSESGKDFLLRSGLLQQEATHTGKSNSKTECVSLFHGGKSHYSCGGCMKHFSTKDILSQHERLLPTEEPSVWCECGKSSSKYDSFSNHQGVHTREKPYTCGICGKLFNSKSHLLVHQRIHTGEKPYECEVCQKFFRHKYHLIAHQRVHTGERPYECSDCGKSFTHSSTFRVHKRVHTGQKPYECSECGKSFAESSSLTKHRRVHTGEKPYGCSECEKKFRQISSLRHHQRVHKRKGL

The targets below were run with ClCC(=O)N[C@@H]1CCCc2ccccc12 (assay: log2 mean competition ratio of IA-DTB cysteine labelling (DMSO/compound) (log2 ratio); higher = stronger cysteine engagement by compound). Details: 50 µM; treatment time: 4 h; cell line lysate: HEK293T.
Method: (§1)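 IA-DTB competitive cysteine chemoproteomics in HEK293T RIPA lysate. Lysates were treated with compound 29 or 30 at 50 or 200 µM for 4 h, then IA-DTB (500 µM, 1 h), trypsin-digested, NeutrAvidin-enriched and analysed by diaPASEF. Competition ratio = intensity DMSO / intensity compound (n=4 treated, n=64 DMSO); binding: mean log2 CR ≥ 1 and p ≤ 0.05 plus QC filters. Target is the cysteine site.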
In the case of ZNF638 C688 (UniProt Q14966), the “log2 mean competition ratio” value is reported as 0.0982. For ZNF644 C62 (UniProt Q9H582), the “log2 mean competition ratio” value was -0.0603. ZNF687 C718 (UniProt Q8N1G0) was tested, and the “log2 mean competition ratio” value was 0.466. For ZNF684 C49, the “log2 mean competition ratio” value was 0.00173. In the case of ZFYVE9 C1252 (UniProt O95405), the “log2 mean competition ratio” value is reported as -0.0389. ZNF451 C441 (UniProt Q9Y4E5) was tested, and the “log2 mean competition ratio” value was -0.301. With ZNF106 C1238 (UniProt Q9H2Y7) the “log2 mean competition ratio” value was 0.417. For ZMYM1 C532 (UniProt Q5SVZ6), the “log2 mean competition ratio” value was 0.154.

Same assay, conditions: 200 µM; treatment time: 4 h; cell line lysate: HEK293T
With ZC3HAV1 C272 (UniProt Q7Z2W4) the “log2 mean competition ratio” value was -0.114. For ZNF638 C879 (UniProt Q14966), the “log2 mean competition ratio” value was 0.297. With ZNF512 C540 (UniProt Q96ME7) the “log2 mean competition ratio” value was -0.0905. For ZMYM2 C663 (UniProt Q9UBW7), the “log2 mean competition ratio” value was -0.148. For ZNF35 C156, the “log2 mean competition ratio” value was -0.0906. For ZNF777 C602, the “log2 mean competition ratio” value was -0.0779. With ZNF521 C833 (UniProt Q96K83) the “log2 mean competition ratio” value was -0.231. In the case of ZNF574 C656 (UniProt Q6ZN55), the “log2 mean competition ratio” value is reported as -0.102. In the case of ZFYVE16 C863 (UniProt Q7Z3T8), the “log2 mean competition ratio” value is reported as 0.272. With ZC3H7B C940 (UniProt Q9UGR2) the “log2 mean competition ratio” value was 0.231. With ZZZ3 C104 (UniProt Q8IYH5) the “log2 mean competition ratio” value was 0.29. With ZNF823 C343 the “log2 mean competition ratio” value was 0.132. ZNF687 C755 (UniProt Q8N1G0) was tested, and the “log2 mean competition ratio” value was -0.275. ZNF100 C9 (UniProt Q8IYN0) was tested, and the “log2 mean competition ratio” value was 0.346. In the case of ZGRF1 C571 (UniProt Q86YA3), the “log2 mean competition ratio” value is reported as 0.0656. In the case of ZNF609 C944 (UniProt O15014), the “log2 mean competition ratio” value is reported as 0.126. With ZNF776 C238 the “log2 mean competition ratio” value was 0.335. In the case of ZMYM3 C557 (UniProt Q14202), the “log2 mean competition ratio” value is reported as -0.131. With ZNF318 C1860 (UniProt Q5VUA4) the “log2 mean competition ratio” value was 0.059. With ZHX2 C738 (UniProt Q9Y6X8) the “log2 mean competition ratio” value was 0.567. For ZMYM2 C667 (UniProt Q9UBW7), the “log2 mean competition ratio” value was 0.247. With ZNF668 C241 (UniProt Q96K58) the “log2 mean competition ratio” value was -0.16. With ZNF644 C554 (UniProt Q9H582) the “log2 mean competition ratio” value was 0.27. ZNF451 C461 (UniProt Q9Y4E5) was tested, and the “log2 mean competition ratio” value was -0.0675. In the case of ZNF263 C284, the “log2 mean competition ratio” value is reported as 0.175. ZNF518A C813 was tested, and the “log2 mean competition ratio” value was -0.0255. With ZNF552 C121 (UniProt Q9H707) the “log2 mean competition ratio” value was 0.28. ZSWIM3 C151 was tested, and the “log2 mean competition ratio” value was 0.0189. With ZNF292 C1050 (UniProt O60281) the “log2 mean competition ratio” value was -0.00753. ZNF638 C688 (UniProt Q14966) was tested, and the “log2 mean competition ratio” value was -0.185. ZNF644 C62 (UniProt Q9H582) was tested, and the “log2 mean competition ratio” value was -0.135. In the case of ZNF687 C718 (UniProt Q8N1G0), the “log2 mean competition ratio” value is reported as 0.0566. For ZNF684 C49, the “log2 mean competition ratio” value was 0.0667. For ZFYVE9 C1252 (UniProt O95405), the “log2 mean competition ratio” value was -0.109. ZNF451 C441 (UniProt Q9Y4E5) was tested, and the “log2 mean competition ratio” value was -0.299. ZNF106 C1238 (UniProt Q9H2Y7) was tested, and the “log2 mean competition ratio” value was -0.299. ZMYM1 C532 (UniProt Q5SVZ6) was tested, and the “log2 mean competition ratio” value was -0.174.

What follows are targets tested with ClCC(=O)N[C@H]1CCCc2ccccc12 in the same assay as above. Details: 50 µM; treatment time: 4 h; cell line lysate: HEK293T.
Method: as §1
ZNF777 C602 was tested, and the “log2 mean competition ratio” value was -0.207. For ZNF823 C343, the “log2 mean competition ratio” value was -0.059. ZNF100 C9 (UniProt Q8IYN0) was tested, and the “log2 mean competition ratio” value was -0.00899. For ZGRF1 C571 (UniProt Q86YA3), the “log2 mean competition ratio” value was 0.355. In the case of ZNF318 C1860 (UniProt Q5VUA4), the “log2 mean competition ratio” value is reported as 0.62. In the case of ZNF263 C284, the “log2 mean competition ratio” value is reported as 0.0742. In the case of ZNF518A C813, the “log2 mean competition ratio” value is reported as 0.025. In the case of ZSWIM3 C151, the “log2 mean competition ratio” value is reported as -0.436. For ZNF638 C688 (UniProt Q14966), the “log2 mean competition ratio” value was 0.385.

Same assay, conditions: 200 µM; treatment time: 4 h; cell line lysate: HEK293T
ZNF777 C602 was tested, and the “log2 mean competition ratio” value was -0.0996. ZNF521 C833 (UniProt Q96K83) was tested, and the “log2 mean competition ratio” value was -0.0769. For ZNF100 C9 (UniProt Q8IYN0), the “log2 mean competition ratio” value was 0.451. ZNF318 C1860 (UniProt Q5VUA4) was tested, and the “log2 mean competition ratio” value was 0.36. For ZNF518A C813, the “log2 mean competition ratio” value was 0.0845. In the case of ZNF552 C121 (UniProt Q9H707), the “log2 mean competition ratio” value is reported as 0.218. In the case of ZNF638 C688 (UniProt Q14966), the “log2 mean competition ratio” value is reported as -0.441. ZFYVE9 C1252 (UniProt O95405) was tested, and the “log2 mean competition ratio” value was -0.0908. ZNF106 C1238 (UniProt Q9H2Y7) was tested, and the “log2 mean competition ratio” value was 0.00736.
